Source: the supplement of paper PMC6078165

Tested on: MDAMB231
Assay: relative JC-1 red fluorescence (viability) vs pre-drug, coculture with fibroblast (fraction); higher = more viable cancer cells
Description: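 JC-1 labelled TNBC cells cocultured 1:1 (1,500 cells each) with CellTrace Violet stained primary or stromal fibroblasts in 384-well plates in FluoroBrite medium, treated with one of 42 anticancer drugs at 0.1, 1, 10 or 100 uM. JC-1 red fluorescence (mitochondrial integrity in cancer cells only) was read by plate reader every 8 h for 72 h. Values are normalised to each well's pre-drug value. The stock of one drug was tenfold lower, so its dose labels may be too high.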

COc1cc([C@@H]2c3cc4c(cc3[C@@H](O[C@@H]3O[C@@H]5CO[C@@H](c6cccs6)O[C@H]5[C@H](O)[C@H]3O)[C@H]3COC(=O)[C@H]23)OCO4)cc(OC)c1O [Teniposide]
relative JC-1 red fluorescence
Conditions	8 h	16 h	24 h	32 h	40 h	48 h	56 h	64 h	72 h
0.1 µM, coculture fibroblast: C12385	0.772	0.724	0.676	0.63	0.553	0.53	0.49	0.498	0.489
0.1 µM, coculture fibroblast: H6013	0.879	0.801	0.784	0.775	0.754	0.75	0.725	0.703	0.673
0.1 µM, coculture fibroblast: H6019	0.743	0.672	0.638	0.575	0.524	0.497	0.452	0.4354	0.4057
0.1 µM, coculture fibroblast: H6076	0.844	0.781	0.752	0.737	0.698	0.662	0.651	0.64	0.643
0.1 µM, coculture fibroblast: H6231	0.8885	0.797	0.742	0.692	0.636	0.608	0.562	0.545	0.525
0.1 µM, coculture fibroblast: HADF	0.847	0.823	0.812	0.795	0.751	0.731	0.712	0.708	0.667
0.1 µM, coculture fibroblast: HCFa	0.875	0.839	0.796	0.73138	0.67495	0.6272	0.579	0.528	0.476
0.1 µM, coculture fibroblast: HCPF	0.85	0.762	0.709	0.688	0.639	0.612	0.58	0.561	0.539
0.1 µM, coculture fibroblast: HHSteC	0.886	0.8471	0.795	0.747	0.714	0.678	0.634	0.6057	0.5578
0.1 µM, coculture fibroblast: HMF	0.822	0.754	0.707	0.679	0.644	0.611	0.586	0.586	0.588
0.1 µM, coculture fibroblast: HPFa	0.909	0.867	0.812	0.747	0.724	0.68	0.624	0.5912	0.539
0.1 µM, coculture fibroblast: HUF	0.821	0.707	0.711	0.606	0.536	0.513	0.473	0.472	0.468
0.1 µM, coculture fibroblast: Hs5	0.845	0.7894	0.748	0.711	0.669	0.615	0.577	0.555	0.548
0.1 µM, coculture fibroblast: Hs27A	0.891	0.871	0.856	0.848	0.802	0.745	0.744	0.728	0.676
0.1 µM, coculture fibroblast: Hs343T	0.851	0.739	0.674	0.644	0.587	0.543	0.492	0.476	0.458
0.1 µM, coculture fibroblast: WS1	0.711	0.633	0.581	0.52	0.474	0.454	0.421	0.431	0.422
1 µM, coculture fibroblast: C12385	0.744	0.732	0.6774	0.666	0.575	0.566	0.539	0.551	0.541
1 µM, coculture fibroblast: H6013	0.8694	0.847	0.811	0.779	0.748	0.736	0.71	0.696	0.652
1 µM, coculture fibroblast: H6019	0.794	0.735	0.726	0.679	0.636	0.621	0.583	0.573	0.545
1 µM, coculture fibroblast: H6076	0.802	0.754	0.734	0.731	0.685	0.655	0.645	0.642	0.633
1 µM, coculture fibroblast: H6231	0.877	0.787	0.7404	0.701	0.653	0.626	0.589	0.573	0.55
1 µM, coculture fibroblast: HADF	0.857	0.83	0.793	0.758	0.735	0.707	0.687	0.677	0.632
1 µM, coculture fibroblast: HCFa	0.922	0.899	0.874	0.836	0.8	0.745	0.694	0.659	0.599
1 µM, coculture fibroblast: HCPF	0.8676	0.778	0.723	0.71	0.651	0.619	0.587	0.561	0.544
1 µM, coculture fibroblast: HHSteC	0.928	0.916	0.889	0.848	0.808	0.788	0.75	0.727	0.681
1 µM, coculture fibroblast: HMF	0.845	0.8012	0.781	0.756	0.724	0.692	0.67	0.669	0.66
1 µM, coculture fibroblast: HPFa	0.9157	0.904	0.863	0.817	0.806	0.779	0.717	0.687	0.64
1 µM, coculture fibroblast: HUF	0.87	0.7853	0.837	0.747	0.707	0.729	0.695	0.71	0.722
1 µM, coculture fibroblast: Hs5	0.8448	0.784	0.746	0.698	0.66	0.612	0.593	0.58	0.56
1 µM, coculture fibroblast: Hs27A	0.885	0.859	0.837	0.811	0.7698	0.714	0.711	0.697	0.648
1 µM, coculture fibroblast: Hs343T	0.836	0.769	0.711	0.669	0.608	0.558	0.509	0.49	0.463
1 µM, coculture fibroblast: WS1	0.7331	0.6831	0.63616	0.589	0.538	0.509	0.478	0.478	0.472
10 µM, coculture fibroblast: C12385	0.766	0.766	0.719	0.71	0.5934	0.497	0.439	0.414	0.39
10 µM, coculture fibroblast: H6013	0.901	0.872	0.854	0.833	0.783	0.74	0.703	0.665	0.617
10 µM, coculture fibroblast: H6019	0.7979	0.7682	0.748	0.73	0.678	0.646	0.628	0.63	0.62
10 µM, coculture fibroblast: H6076	0.886	0.852	0.817	0.789	0.732	0.662	0.614	0.593	0.574
10 µM, coculture fibroblast: H6231	0.902	0.865	0.837	0.793	0.75	0.708	0.655	0.632	0.619
10 µM, coculture fibroblast: HADF	0.9108	0.9051	0.8839	0.86	0.814	0.753	0.732	0.699	0.631
10 µM, coculture fibroblast: HCFa	0.914	0.897	0.87	0.822	0.749	0.711	0.676	0.646	0.598
10 µM, coculture fibroblast: HCPF	0.899	0.874	0.857	0.848	0.804	0.766	0.7345	0.7147	0.689
10 µM, coculture fibroblast: HHSteC	0.914	0.907	0.884	0.842	0.79	0.756	0.695	0.66	0.62
10 µM, coculture fibroblast: HMF	0.9086	0.8758	0.83737	0.8111	0.768	0.7089	0.667	0.64	0.62
10 µM, coculture fibroblast: HPFa	0.946	0.943	0.901	0.844	0.7945	0.752	0.6592	0.626	0.585
10 µM, coculture fibroblast: HUF	0.849	0.795	0.812	0.728	0.68	0.684	0.639	0.65	0.644
10 µM, coculture fibroblast: Hs5	0.934	0.896	0.864	0.806	0.744	0.673	0.626	0.595	0.568
10 µM, coculture fibroblast: Hs27A	0.8837	0.865	0.833	0.819	0.771	0.733	0.722	0.7039	0.652
10 µM, coculture fibroblast: Hs343T	0.874	0.8388	0.818	0.809	0.751	0.704	0.659	0.644	0.626
10 µM, coculture fibroblast: WS1	0.7578	0.7484	0.662	0.68	0.626	0.581	0.534	0.525	0.499
100 µM, coculture fibroblast: C12385	0.823	0.819	0.825	0.851	0.796	0.766	0.75	0.78	0.774
100 µM, coculture fibroblast: H6013	0.9364	0.9358	0.9289	0.9441	0.953	0.948	0.928	0.904	0.85
100 µM, coculture fibroblast: H6019	0.825	0.7885	0.826	0.838	0.8373	0.88063	0.906	0.968	0.9757
100 µM, coculture fibroblast: H6076	0.9271	0.9289	0.935	0.925	0.934	0.936	0.932	0.932	0.919
100 µM, coculture fibroblast: H6231	0.9571	0.9245	0.912	0.915	0.939	0.83	0.89	0.902	0.815
100 µM, coculture fibroblast: HADF	0.93	0.93058	0.937	0.957	0.9469	0.927	0.924	0.9237	0.884
100 µM, coculture fibroblast: HCFa	0.9452	0.9186	0.9359	0.963	0.88	0.958	0.9621	0.941	0.92
100 µM, coculture fibroblast: HCPF	0.961	0.906	0.901	0.927	0.904	0.88	0.876	0.884	0.872
100 µM, coculture fibroblast: HHSteC	0.9468	0.95889	0.9518	0.963	0.9676	0.962	0.918	0.913	0.874
100 µM, coculture fibroblast: HMF	0.947	0.931	0.944	0.928	0.921	0.897	0.873	0.875	0.861
100 µM, coculture fibroblast: HPFa	0.9584	0.974	0.9714	0.9881	0.91	0.804	0.918	0.928	0.959
100 µM, coculture fibroblast: HUF	0.924	0.872	0.934	0.88	0.864	0.912	0.903	0.943	0.87
100 µM, coculture fibroblast: Hs5	0.9458	0.9705	0.868	0.891	0.763	0.95	0.864	0.847	0.845
100 µM, coculture fibroblast: Hs27A	0.9558	0.957	0.964	0.874	0.932	0.87	0.852	0.813	0.896
100 µM, coculture fibroblast: Hs343T	0.963	0.947	0.914	0.86	0.8426	0.906	0.9	0.786	0.788
100 µM, coculture fibroblast: WS1	0.827	0.7904	0.8509	0.8208	0.842	0.879	0.875	0.928	0.94

The reference is the same well before dosing, and untreated signal decays as well.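 Fibroblast labels denote human fibroblasts, mainly primary ones from uterus (C12385, HUF), lung (H6013), bone (Hs27A), adrenal (HADF) and skin (WS1), plus mammary HMF and breast cancer-associated Hs343T. Cancer cells are basal-like or mesenchymal-like triple-negative breast cancer lines. A hit is a response shift exceeding 3x replicate standard deviation. The tissue of the other fibroblasts is not given here.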
